Measurements from patent publication US11230581B2, “Peptides and combination of peptides for use in immunotherapy against ovarian cancer and other cancers” (Immatics Biotechnologies GmbH, priority 2015, dated 2022).

What was measured:
ovarian cancer samples = experiment: Relative LC-MS quantitation of HLA-presented peptides: presentation and over-presentation on ovarian cancer vs a panel of normal tissues (presentation score); parameters: species or system human; key: +++: very highly over-presented on tumors compared to a panel of normal tissues; ++: highly over-presented on tumors compared to a panel of normal tissues; +: over-presented on tumors compared to a panel of normal tissues; conditions: over-presentation on tumors compared to a panel of normal tissues
additional tumor types = experiment: LC-MS detection and over-presentation of the peptides on additional tumor types, cell lines and primary cultures; parameters: species or system human; conditions: for Other relevant organs/ cancerous diseases: Table 4A: additional tumor types on which the peptide was found, over-presented on more than 5% of measured tumor samples, or presented on more than 5% with ratio of geometric means tumor vs normal tissues larger than 3; for Additional organs/cancerous diseases: amendment of Table 4: additional tumor types showing over-presentation (including specific presentation) on more than 5% of measured tumor samples, or presentation on more than 5% with ratio of geometric means tumor vs normal tissues larger than 3

| Substance | Peptide Presentation (presentation score) (ovarian cancer samples) | Other relevant organs/ cancerous diseases (additional tumor types) | Additional organs/cancerous diseases (additional tumor types) |
| --- | --- | --- | --- |
| 48 (ALAELYEDEV; listed as Homo sapiens) [compound 48] | +++ | SCLC, Brain Cancer, HCC, Leukemia, Melanoma, Uterine Cancer |  |
| 51 (LLPDLEFYV; listed as Homo sapiens) [compound 51] | +++ | SCLC, PrC, Gallbladder Cancer, Bile Duct Cancer | Melanoma, Urinary Bladder Cancer |
| 54 (SLLEQGKEPWMV; listed as Homo sapiens) [compound 54] | +++ | SCLC, HCC, Gallbladder Cancer, Bile Duct Cancer | NSCLC, CLL |
| 55 (SLLDLETLSL; listed as Homo sapiens) [compound 55] | +++ | SCLC |  |
| 56 (KLYEGIPVLL; listed as Homo sapiens) [compound 56] | +++ | BrCa |  |
| 57 (TLAELQPPVQL; listed as Homo sapiens) [compound 57] | +++ | NSCLC, SCLC, HCC, Leukemia, Melanoma, Esophageal Cancer | CLL, Urinary Bladder Cancer, Uterine Cancer, Gallbladder Cancer and Bile Duct Cancer, NHL, HNSCC |
| 59 (IMEDIILTL; listed as Homo sapiens) [compound 59] | +++ | SCLC, Leukemia, BrCa |  |
| 60 (SLTIDGIYYV; listed as Homo sapiens) [compound 60] | +++ | SCLC, Prostate, Leukemia | BRCA, Uterine Cancer |
| 61 (FLQGYQLHL; listed as Homo sapiens) [compound 61] | +++ | NSCLC, SCLC, BrCa, Melanoma, Esophageal Cancer | Urinary Bladder Cancer, Uterine Cancer, Gallbladder Cancer and Bile Duct Cancer, NHL, HNSCC |
| 62 (VLLDVSAGQLLM; listed as Homo sapiens) [compound 62] | +++ | NSCLC, Melanoma |  |
| 63 (YLLPSGGSVTL; listed as Homo sapiens) [compound 63] | +++ | HCC, Melanoma, Esophageal Cancer | Gallbladder Cancer and Bile Duct Cancer, HNSCC |
| 64 (YAAPGGLIGV; listed as Homo sapiens) [compound 64] | + | HCC, PC, Melanoma, Esophageal Cancer, Gallbladder Cancer, Bile Duct Cancer | NSCLC, SCLC, CLL, BRCA, Urinary Bladder Cancer, Uterine Cancer, AML, NHL, HNSCC |
| 65 (LKVNQGLESL; listed as Homo sapiens) [compound 65] | +++ | NSCLC, SCLC, PC, Leukemia, BrCa, Esophageal Cancer | Melanoma, Gallbladder Cancer and Bile Duct Cancer, AML, NHL |
| 67 (TLLAEALVTV; listed as Homo sapiens) [compound 67] | +++ |  | SCLC |
| 68 (SLMELPRGLFL; listed as Homo sapiens) [compound 68] | +++ | Brain Cancer |  |
| 69 (FQLDPSSGVLVTV; listed as Homo sapiens) [compound 69] | +++ | Esophageal Cancer | HNSCC |
| 71 (GILARIASV; listed as Homo sapiens) [compound 71] | +++ |  | AML, NHL |
| 72 (SLLELDGINL; listed as Homo sapiens) [compound 72] | +++ | NSCLC, SCLC, Prostate | BRCA, Uterine Cancer |
| 73 (NIFDLQIYV; listed as Homo sapiens) [compound 73] | +++ |  | BRCA |
| 74 (ALLDPEVLSIFV; listed as Homo sapiens) [compound 74] | +++ | NSCLC, Leukemia, Melanoma |  |
| 75 (GLLEVMVNL; listed as Homo sapiens) [compound 75] | +++ | SCLC | Gallbladder Cancer and Bile Duct Cancer |
| 76 (ILIDSIYKV; listed as Homo sapiens) [compound 76] | +++ | SCLC, CRC, BrCa | Uterine Cancer |

| Substance | Peptide Presentation (presentation score) (ovarian cancer samples) | Other relevant organs/ cancerous diseases (additional tumor types) | Additional organs/cancerous diseases (additional tumor types) |
| --- | --- | --- | --- |
| 77 (ILVEADGAWVV; listed as Homo sapiens) [compound 77] | +++ | Melanoma, Esophageal Cancer | BRCA, Uterine Cancer, AML, NHL |
| 78 (SLFSSLEPQIQPV; listed as Homo sapiens) [compound 78] | +++ |  | CLL, Melanoma, Urinary Bladder Cancer, AML, HNSCC |
| 79 (SLFIGEKAVLL; listed as Homo sapiens) [compound 79] | ++ | NSCLC, SCLC, CRC, Leukemia, Esophageal Cancer, Urinary bladder Cancer | CLL, BRCA, Melanoma, Gallbladder Cancer and Bile Duct Cancer, AML, NHL, HNSCC |
| 82 (FLSSVTYNL; listed as Homo sapiens) [compound 82] | +++ |  | Melanoma |
| 83 (ILAPTVMMI; listed as Homo sapiens) [compound 83] | +++ |  | Melanoma |
| 84 (VTFGEKLLGV; listed as Homo sapiens) [compound 84] | +++ |  | Melanoma |
| 86 (NLIGKIENV; listed as Homo sapiens) [compound 86] | + | Colon, Rectum |  |
| 87 (ALPEAPAPLLPHIT; listed as Homo sapiens) [compound 87] | +++ | HCC, PC, Urinary bladder Cancer, Gallbladder Cancer, Bile Duct Cancer |  |
| 88 (FLLVGDLMAV; listed as Homo sapiens) [compound 88] | +++ | SCLC | Melanoma |
| 91 (IMQDFPAEIFL; listed as Homo sapiens) [compound 91] | +++ | SCLC | CLL, BRCA, Melanoma, Gallbladder Cancer and Bile Duct Cancer, AML, NHL, HNSCC |
| 92 (YLIPFTGIVGL; listed as Homo sapiens) [compound 92] | +++ | SCLC, HCC, Leukemia, Melanoma | CLL, AML, NHL, HNSCC |
| 93 (LLQAIKLYL; listed as Homo sapiens) [compound 93] | +++ | BrCa | Urinary Bladder Cancer, Gallbladder Cancer and Bile Duct Cancer |
| 94 (YLIDIKTIAI; listed as Homo sapiens) [compound 94] | +++ | HCC | SCLC, Melanoma, Urinary Bladder Cancer |
| 97 (SLINGSFLV; listed as Homo sapiens) [compound 97] | +++ | NSCLC, RCC, CRC, HCC, PC, Melanoma, Esophageal Cancer | CLL, BRCA, Urinary Bladder Cancer, Uterine Cancer, Gallbladder Cancer and Bile Duct Cancer |
| 98 (LIIDQADIYL; listed as Homo sapiens) [compound 98] | +++ | NSCLC, SCLC, RCC, CRC, HCC, Leukemia, Melanoma, Esophageal Cancer | CLL, Urinary Bladder Cancer, Gallbladder Cancer and Bile Duct Cancer, AML, NHL |
| 100 (YLLSTNAQL; listed as Homo sapiens) [compound 100] | +++ |  | Urinary Bladder Cancer |
| 101 (ILVGGGALATV; listed as Homo sapiens) [compound 101] | +++ | Melanoma, Urinary bladder Cancer |  |
| 102 (YLFESEGLVL; listed as Homo sapiens) [compound 102] | +++ |  | CLL, Melanoma |
| 103 (TLAEEVVAL; listed as Homo sapiens) [compound 103] | +++ | SCLC, BrCa, Esophageal Cancer | Melanoma, HNSCC |
| 105 (LLLEHSFEI; listed as Homo sapiens) [compound 105] | ++ | NSCLC, Melanoma | Urinary Bladder Cancer, Gallbladder Cancer and Bile Duct Cancer, NHL, HNSCC |
| 106 (LLYDAVHIVSV; listed as Homo sapiens) [compound 106] | +++ | Brain Cancer |  |
